The values that follow come from PubChem BioAssay (NCATS).

The list shows a part of the results. The main result of the screen is listed elsewhere. These columns were measured beside it and carry no call. The list favours compounds with an active or inconclusive main result.
On the % scale 0 is the no-effect control and ±100 the full control effect.

This assay is described as follows: qHTS assay for small molecule antagonists of retinoid X receptor alpha signaling (AID 588546).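 Further: cells stimulated with 9-cis-retinoic acid as agonist.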 Particulars: HEK293T RXRa-UAS-bla, beta-lactamase ratio, antagonist mode; measured here: W530 green channel, cytotoxicity proxy. Summed up: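 Beta-lactamase reporter inhibition, read as CCF4 fluorescence ratio (ex 405, em 460/530 nm) after 2 h at RT. HEK293T UAS-bla cells, 2500/well, were stimulated with 9-cis-RA at 500 or 100 nM final alongside test compound for 18 h at 37 C.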
On the technique in general: Quantitative high-throughput screening tests each substance at several concentrations.
As to `O=c1oc2ccccc2c(O)c1C(CC(O)c1ccc(-c2ccc(Br)cc2)cc1)c1ccccc1` (centres undefined), the max response turned out to be 12.7%.
For `O=P(O)(O)CCCl`, the max response was -12.8%.
Consider `C[Si](Cn1cncn1)(c1ccc(F)cc1)c1ccc(F)cc1`, for which the max response is -39.4%.
Take `O=[N+]([O-])c1c(Cl)c(Cl)c(Cl)c(Cl)c1Cl`: the max response came to 6.11%.
`CCc1nn(C)c(C(=O)NCc2ccc(C(C)(C)C)cc2)c1Cl`: the max response stood at 34.2%.
In the case of `C[C@]12CC[C@H]3[C@@H](CCC4=CC(=O)CC[C@@]43C)[C@@H]1CC[C@@H]2O`, the max response is 13.6%.
With `COP(=O)(OC)SCn1c(=O)oc2cc(Cl)cnc21`, the max response stood at 14.3%.
As for `Clc1ccc(C(c2ccccc2Cl)C(Cl)(Cl)Cl)cc1` (centres undefined), the max response was -5.59%.
For `O=C(Nc1ccccc1)Nc1ccnc(Cl)c1`, the max response is 12.3%.
The result for `COP(=S)(OC)SCN1C(=O)c2ccccc2C1=O` reads -14%; that for `CC(C)(C)C(=O)C1C(=O)c2ccccc2C1=O`, -2.04%; that for `Clc1nc(Cl)nc(Nc2ccccc2Cl)n1`, 12.6%.
For the molecule `ClC(Cl)=C(c1ccc(Cl)cc1)c1ccc(Cl)cc1`, the max response was -6.59%.
For `O=C/C(Cl)=C(/Cl)C(=O)O` the value was 19.7%.
